The list shows a part of the results. These are raw signals, not scaled to a control.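 Primary screen: polymyxin B was added at a level permeabilizing Salmonella outer membranes while sparing inner membranes. DMSO wells, both with and without polymyxin B, established maximum growth. Plate-to-plate variation meant each plate was ranked on its own, and the lowest-OD600 compounds were selected as hits.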
System: Salmonella enterica serovar Typhimurium SL1344
Test: bacterial growth OD600 after 18 h with compound and polymyxin B; higher = more bacterial growth (less inhibition)
Conditions: 50 µM, Mueller-Hinton broth

Structure (SMILES): CC(C)CC(=O)Nc1ccnn1C1CCN(Cc2cc[nH]n2)CC1
- bacterial growth OD600 (polymyxin B 1 µg/mL): 0.941

Structure (SMILES): O=C1O[C@@H]2CN(C3Cc4ccccc4C3)C[C@@H]2N1CCc1ccccn1
- bacterial growth OD600 (polymyxin B 1 µg/mL): 1.17

Structure (SMILES): Cc1nc(CC(=O)N(Cc2ccc(OCc3ccccn3)cc2)[C@H]2CCCCNC2=O)cs1
- bacterial growth OD600 (polymyxin B 0.75 µg/mL): 0.835

Structure (SMILES): Cc1c(CNCc2cccnc2Oc2ccc(F)c(F)c2)cnn1C
- bacterial growth OD600 (polymyxin B 0.75 µg/mL): 0.777

Structure (SMILES): Cc1nc(CN2CCC(N3CCC(C(=O)NCCc4ccccc4)CC3)CC2)c[nH]1
- bacterial growth OD600 (polymyxin B 1 µg/mL): 1.16

Structure (SMILES): COC(=O)c1c(S(=O)(=O)N2CCCC2)sc2c1CCN(C(=O)C(=O)c1ccccc1)C2
- bacterial growth OD600 (polymyxin B 0.75 µg/mL): 0.744

Structure (SMILES): COc1cccc(CN2CCCC2C(=O)Nc2ccc(-c3cscn3)cc2)c1 (stereo unspecified)
- bacterial growth OD600 (polymyxin B 0.75 µg/mL): 0.568

Structure (SMILES): CCOC(=O)CCNC(=O)C1CC(=O)c2sc(NC(=O)c3c(F)cccc3Cl)nc2C1 (stereo unspecified)
- bacterial growth OD600 (polymyxin B 0.75 µg/mL): 0.819

Structure (SMILES): COc1ccc(OC2CCN(C3CCCC3)CC2)c(C(=O)N2CCN(CC3CC3)CC2)c1
- bacterial growth OD600 (polymyxin B 1 µg/mL): 0.877

Structure (SMILES): CCOC(=O)C1(Cc2ccc(F)cc2)CCCN(C(=O)C(C)(C)C)C1 (stereo unspecified)
- bacterial growth OD600 (polymyxin B 1 µg/mL): 0.666

Structure (SMILES): FC(F)Oc1ccc(CNCc2cccnc2N2CCOCC2)cc1
- bacterial growth OD600 (polymyxin B 1 µg/mL): 0.958

Structure (SMILES): COc1cc(-c2nc(CN3CCSCC3)c(C)o2)ccc1F
- bacterial growth OD600 (polymyxin B 1 µg/mL): 0.754

Structure (SMILES): COc1ccc(C(=O)N2CCCC(Nc3ccc(F)c(F)c3)C2)c(OC)n1 (stereo unspecified)
- bacterial growth OD600 (polymyxin B 1 µg/mL): 0.86

Structure (SMILES): Cc1nnc(-c2cccc(NC(=O)C3CCCCN3C(=O)C3CCC3)c2)s1 (stereo unspecified)
- bacterial growth OD600 (polymyxin B 1 µg/mL): 0.996

Structure (SMILES): Cc1nc2ccccn2c1CN(C)C(=O)c1ccc2nc(Cc3ccccc3F)oc2c1
- bacterial growth OD600 (polymyxin B 0.75 µg/mL): 0.671

Structure (SMILES): COc1ccccc1N1CCN(C2CCCN(Cc3ccccc3-c3ccco3)C2)CC1 (stereo unspecified)
- bacterial growth OD600 (polymyxin B 1 µg/mL): 0.937

Structure (SMILES): CN(Cc1nc(COc2ccccc2)no1)CC1Cc2ccccc2O1 (stereo unspecified)
- bacterial growth OD600 (polymyxin B 1 µg/mL): 1

Structure (SMILES): CC(NC(=O)c1coc(COc2cccc(C(F)(F)F)c2)n1)c1ccncn1 (stereo unspecified)
- bacterial growth OD600 (polymyxin B 1 µg/mL): 0.98

Structure (SMILES): O=C1CCC(CCC(=O)N2CCCC(C(=O)c3ccccc3)C2)(Cc2ccc3ccccc3c2)N1 (stereo unspecified)
- bacterial growth OD600 (polymyxin B 0.75 µg/mL): 0.834

Structure (SMILES): CCOc1ccc2nc(N3CCCC3C(=O)NCCc3nc(-c4cccnc4)no3)nc(C)c2c1 (stereo unspecified)
- bacterial growth OD600 (polymyxin B 0.75 µg/mL): 0.843

Structure (SMILES): Cc1ccc(C(=O)N2CCCC(Nc3ccc(F)cc3)C2)cc1 (stereo unspecified)
- bacterial growth OD600 (polymyxin B 1 µg/mL): 0.75
